Results: paper PMC12804701
No constants are given. Whether binding was seen depends on the method and setting. In cells and extracts the contact can be indirect. Here binding means that the protein was enriched with, or labelled near, the bait; the list need not be complete. Blank lines part the entries; values can stand above or below the molecule they belong to.

Protein sequences, listed by entry. Tags and fused reporters are not part of them. Lines headed by an entry give the natural chain unless they say otherwise; changes in a name come on top. Residues count along the entry.
UniProt P10591: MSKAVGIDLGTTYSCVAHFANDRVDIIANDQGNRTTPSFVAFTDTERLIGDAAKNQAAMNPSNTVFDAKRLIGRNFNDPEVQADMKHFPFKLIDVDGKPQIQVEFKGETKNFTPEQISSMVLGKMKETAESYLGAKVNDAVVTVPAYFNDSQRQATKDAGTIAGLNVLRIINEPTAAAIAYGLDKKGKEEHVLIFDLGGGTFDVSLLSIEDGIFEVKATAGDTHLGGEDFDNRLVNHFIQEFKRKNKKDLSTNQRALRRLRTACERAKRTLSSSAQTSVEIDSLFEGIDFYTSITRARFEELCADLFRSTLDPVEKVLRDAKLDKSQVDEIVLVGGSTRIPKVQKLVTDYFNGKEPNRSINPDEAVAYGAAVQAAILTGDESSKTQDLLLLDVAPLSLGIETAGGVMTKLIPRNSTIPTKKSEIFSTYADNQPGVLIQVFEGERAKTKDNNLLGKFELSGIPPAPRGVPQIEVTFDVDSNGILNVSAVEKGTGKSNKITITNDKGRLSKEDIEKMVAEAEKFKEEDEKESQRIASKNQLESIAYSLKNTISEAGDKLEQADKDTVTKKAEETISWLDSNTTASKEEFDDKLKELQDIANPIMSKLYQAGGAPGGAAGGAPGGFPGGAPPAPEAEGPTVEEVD
UniProt P19882, residues 26-572: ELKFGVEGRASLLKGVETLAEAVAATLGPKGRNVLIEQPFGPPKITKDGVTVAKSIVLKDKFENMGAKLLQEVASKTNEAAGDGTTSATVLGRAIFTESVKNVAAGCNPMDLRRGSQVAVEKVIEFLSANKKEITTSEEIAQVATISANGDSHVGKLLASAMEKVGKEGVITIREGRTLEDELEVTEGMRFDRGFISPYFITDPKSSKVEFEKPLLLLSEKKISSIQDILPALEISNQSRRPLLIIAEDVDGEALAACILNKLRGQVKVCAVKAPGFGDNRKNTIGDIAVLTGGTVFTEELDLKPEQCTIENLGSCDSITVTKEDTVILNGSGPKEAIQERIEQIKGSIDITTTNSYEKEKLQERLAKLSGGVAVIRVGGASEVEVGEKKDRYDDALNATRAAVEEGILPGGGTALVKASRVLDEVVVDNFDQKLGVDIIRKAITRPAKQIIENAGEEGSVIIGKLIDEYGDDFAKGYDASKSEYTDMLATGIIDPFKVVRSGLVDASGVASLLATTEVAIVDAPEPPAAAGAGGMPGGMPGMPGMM
UniProt P25491: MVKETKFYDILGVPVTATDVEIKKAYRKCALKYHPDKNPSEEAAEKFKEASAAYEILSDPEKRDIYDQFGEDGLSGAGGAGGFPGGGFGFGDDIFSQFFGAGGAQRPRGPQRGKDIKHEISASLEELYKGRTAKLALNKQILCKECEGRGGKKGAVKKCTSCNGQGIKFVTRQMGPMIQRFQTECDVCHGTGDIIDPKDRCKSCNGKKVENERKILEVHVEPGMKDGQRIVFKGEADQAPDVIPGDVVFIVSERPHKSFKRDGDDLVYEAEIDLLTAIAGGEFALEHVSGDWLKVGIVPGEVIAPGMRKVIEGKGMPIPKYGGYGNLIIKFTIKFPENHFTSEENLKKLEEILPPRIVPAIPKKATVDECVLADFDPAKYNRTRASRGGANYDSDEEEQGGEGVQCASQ
UniProt P0CS90, residues 24-654: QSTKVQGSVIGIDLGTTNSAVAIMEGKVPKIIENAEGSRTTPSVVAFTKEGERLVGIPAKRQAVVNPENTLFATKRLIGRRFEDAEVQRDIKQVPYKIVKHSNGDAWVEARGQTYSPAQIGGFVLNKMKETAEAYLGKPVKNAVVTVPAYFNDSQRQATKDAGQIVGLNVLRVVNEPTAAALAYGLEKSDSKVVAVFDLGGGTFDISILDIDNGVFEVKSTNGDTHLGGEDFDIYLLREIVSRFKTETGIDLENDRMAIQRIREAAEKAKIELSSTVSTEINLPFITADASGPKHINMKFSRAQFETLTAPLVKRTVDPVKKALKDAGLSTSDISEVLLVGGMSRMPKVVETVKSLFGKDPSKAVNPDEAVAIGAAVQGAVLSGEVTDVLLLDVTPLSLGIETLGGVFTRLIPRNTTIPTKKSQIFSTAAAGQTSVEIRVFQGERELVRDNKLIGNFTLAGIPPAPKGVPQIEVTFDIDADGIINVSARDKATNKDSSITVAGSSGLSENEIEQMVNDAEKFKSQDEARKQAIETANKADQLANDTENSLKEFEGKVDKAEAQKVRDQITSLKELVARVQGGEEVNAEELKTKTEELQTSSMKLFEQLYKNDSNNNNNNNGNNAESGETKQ
UniProt P04147: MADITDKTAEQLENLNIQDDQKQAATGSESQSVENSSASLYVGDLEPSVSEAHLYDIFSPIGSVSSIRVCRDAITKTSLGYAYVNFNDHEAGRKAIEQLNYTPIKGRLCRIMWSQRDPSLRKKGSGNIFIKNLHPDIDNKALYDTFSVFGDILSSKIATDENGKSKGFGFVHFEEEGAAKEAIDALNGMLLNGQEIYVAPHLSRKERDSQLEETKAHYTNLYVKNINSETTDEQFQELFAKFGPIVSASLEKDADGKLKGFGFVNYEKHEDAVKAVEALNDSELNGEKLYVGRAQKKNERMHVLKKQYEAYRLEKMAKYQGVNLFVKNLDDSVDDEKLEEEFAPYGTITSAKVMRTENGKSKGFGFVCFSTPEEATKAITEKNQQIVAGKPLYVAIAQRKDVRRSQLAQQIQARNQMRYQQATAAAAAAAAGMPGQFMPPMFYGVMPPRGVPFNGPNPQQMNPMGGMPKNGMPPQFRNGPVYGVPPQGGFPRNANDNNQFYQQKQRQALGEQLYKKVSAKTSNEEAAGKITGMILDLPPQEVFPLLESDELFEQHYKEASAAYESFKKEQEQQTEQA
UniProt P16474, residues 43-682: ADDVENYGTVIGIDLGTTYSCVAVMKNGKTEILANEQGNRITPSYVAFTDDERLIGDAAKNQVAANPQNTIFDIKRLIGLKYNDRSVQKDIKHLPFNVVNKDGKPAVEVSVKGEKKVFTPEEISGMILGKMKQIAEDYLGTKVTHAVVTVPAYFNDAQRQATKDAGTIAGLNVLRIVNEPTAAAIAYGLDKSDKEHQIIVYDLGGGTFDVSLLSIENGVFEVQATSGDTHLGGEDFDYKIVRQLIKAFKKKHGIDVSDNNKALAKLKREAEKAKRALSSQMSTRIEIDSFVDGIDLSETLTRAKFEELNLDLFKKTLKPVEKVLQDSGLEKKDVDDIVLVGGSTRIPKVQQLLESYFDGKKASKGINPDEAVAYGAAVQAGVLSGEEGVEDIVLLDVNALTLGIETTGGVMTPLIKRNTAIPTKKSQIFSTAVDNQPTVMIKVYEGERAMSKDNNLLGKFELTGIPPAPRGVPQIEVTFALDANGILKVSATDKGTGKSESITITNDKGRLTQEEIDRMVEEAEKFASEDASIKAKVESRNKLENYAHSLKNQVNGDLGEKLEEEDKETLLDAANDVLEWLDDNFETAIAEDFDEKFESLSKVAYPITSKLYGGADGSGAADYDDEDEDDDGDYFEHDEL
UniProt P11484: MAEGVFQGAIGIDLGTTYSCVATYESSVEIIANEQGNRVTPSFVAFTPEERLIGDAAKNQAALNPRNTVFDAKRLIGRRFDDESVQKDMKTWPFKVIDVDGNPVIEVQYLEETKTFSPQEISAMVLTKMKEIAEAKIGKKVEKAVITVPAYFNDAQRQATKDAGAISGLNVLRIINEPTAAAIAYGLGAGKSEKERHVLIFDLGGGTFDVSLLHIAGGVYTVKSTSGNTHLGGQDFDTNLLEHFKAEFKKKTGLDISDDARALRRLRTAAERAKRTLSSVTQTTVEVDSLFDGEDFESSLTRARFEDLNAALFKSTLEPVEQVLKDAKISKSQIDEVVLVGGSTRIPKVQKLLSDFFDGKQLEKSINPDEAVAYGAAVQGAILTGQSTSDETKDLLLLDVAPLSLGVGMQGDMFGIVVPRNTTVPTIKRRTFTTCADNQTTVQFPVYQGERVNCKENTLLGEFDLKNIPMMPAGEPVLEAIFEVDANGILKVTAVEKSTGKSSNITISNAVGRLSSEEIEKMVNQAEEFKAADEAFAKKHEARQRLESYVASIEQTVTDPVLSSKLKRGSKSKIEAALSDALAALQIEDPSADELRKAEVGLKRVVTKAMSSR

What was measured:
[1] = target: FLAG-tagged Ssa1 (wild type) (budding yeast) (UniProt P10591); assay: affinity purification with mass spectrometry; Ssa1 complexes (WT or T492A) immunoprecipitated from heat-shocked yeast; three biological replicates each; eluted from beads with 8 M urea; LC-MS/MS; data normalized on Ssa1
[2] = target: FLAG-tagged Ssa1-T492A (budding yeast) (UniProt P10591); assay: as above

- binding [1]: binds
- binding [2]: binds
Molecule: Hsp60 (from UniProt P19882 26-572)

- binding [1]: binds
Molecule: Ydj1 (from UniProt P25491 1-409)

- binding [1]: binds
- binding [2]: binds
B1: Sgt2 (protein, UniProt Q12118 1-346)
chain: MSASKEEIAALIVNYFSSIVEKKEISEDGADSLNVAMDCISEAFGFEREAVSGILGKSEFKGQHLADILNSASRVPESNKKDDAENVEINIPEDDAETKAKAEDLKMQGNKAMANKDYELAINKYTEAIKVLPTNAIYYANRAAAHSSLKEYDQAVKDAESAISIDPSYFRGYSRLGFAKYAQGKPEEALEAYKKVLDIEGDNATEAMKRDYESAKKKVEQSLNLEKTVPEQSRDADVDASQGASAGGLPDLGSLLGGGLGGLMNNPQLMQAAQKMMSNPGAMQNIQKMMQDPSIRQMAEGFASGGGTPNLSDLMNNPALRNMAGNLFGGAGAQSTDETPDNENKQ

- binding [1]: binds
- binding [2]: binds
B2: Sti1 (protein, UniProt P15705 1-589)
chain: MSLTADEYKQQGNAAFTAKDYDKAIELFTKAIEVSETPNHVLYSNRSACYTSLKKFSDALNDANECVKINPSWSKGYNRLGAAHLGLGDLDEAESNYKKALELDASNKAAKEGLDQVHRTQQARQAQPDLGLTQLFADPNLIENLKKNPKTSEMMKDPQLVAKLIGYKQNPQAIGQDLFTDPRLMTIMATLMGVDLNMDDINQSNSMPKEPETSKSTEQKKDAEPQSDSTTSKENSSKAPQKEESKESEPMEVDEDDSKIEADKEKAEGNKFYKARQFDEAIEHYNKAWELHKDITYLNNRAAAEYEKGEYETAISTLNDAVEQGREMRADYKVISKSFARIGNAYHKLGDLKKTIEYYQKSLTEHRTADILTKLRNAEKELKKAEAEAYVNPEKAEEARLEGKEYFTKSDWPNAVKAYTEMIKRAPEDARGYSNRAAALAKLMSFPEAIADCNKAIEKDPNFVRAYIRKATAQIAVKEYASALETLDAARTKDAEVNNGSSAREIDQLYYKASQQRFQPGTSNETPEETYQRAMKDPEVAAIMQDPVMQSILQQAQQNPAALQEHMKNPEVFKKIQTLIAAGIIRTGR

- binding [1]: binds
- binding [2]: binds
B3: Edc3 (protein, UniProt P39998 1-551)
chain: MSQFVGFGVQVELKDGKLIQGKIAKATSKGLTLNDVQFGDGGKSQAFKVRASRLKDLKVLTVASQSGKRKQQRQQQQQNDYNQNRGEHIDWQDDDVSKIKQQEDFDFQRNLGMFNKKDVFAQLKQNDDILPENRLQGHNRKQTQLQQNNYQNDELVIPDAKKDSWNKISSRNEQSTHQSQPQQDAQDDLVLEDDEHEYDVDDIDDPKYLPITQSLNITHLIHSATNSPSINDKTKGTVINDKDQVLAKLGQMIISQSRSNSTSLPAANKQTTIRSKNTKQNIPMATPVQLLEMESITSEFFSINSAGLLENFAVNASFFLKQKLGGRARLRLQNSNPEPLVVILASDSNRSGAKALALGRHLCQTGHIRVITLFTCSQNELQDSMVKKQTDIYKKCGGKIVNSVSSLESAMETLNSPVEIVIDAMQGYDCTLSDLAGTSEVIESRIKSMISWCNKQRGSTKVWSLDIPNGFDAGSGMPDIFFSDRIEATGIICSGWPLIAINNLIANLPSLEDAVLIDIGIPQGAYSQRTSLRKFQNCDLFVTDGSLLLDL

- binding [1]: binds
B6: Lhs1 (protein, UniProt P36016 21-881)
chain: AVLGVDYGQQNIKAIVVSPQAPLELVLTPEAKRKEISGLSIKRLPGYGKDDPNGIERIYGSAVGSLATRFPQNTLLHLKPLLGKSLEDETTVTLYSKQHPGLEMVSTNRSTIAFLVDNVEYPLEELVAMNVQEIANRANSLLKDRDARTEDFVNKMSFTIPDFFDQHQRKALLDASSITTGIEETYLVSEGMSVAVNFVLKQRQFPPGEQQHYIVYDMGSGSIKASMFSILQPEDTTQPVTIEFEGYGYNPHLGGAKFTMDIGSLIENKFLETHPAIRTDELHANPKALAKINQAAEKAKLILSANSEASINIESLINDIDFRTSITRQEFEEFIADSLLDIVKPINDAVTKQFGGYGTNLPEINGVILAGGSSRIPIVQDQLIKLVSEEKVLRNVNADESAVNGVVMRGIKLSNSFKTKPLNVVDRSVNTYSFKLSNESELYDVFTRGSAYPNKTSILTNTTDSIPNNFTIDLFENGKLFETITVNSGAIKNSYSSDKCSSGVAYNITFDLSSDRLFSIQEVNCICQSENDIGNSKQIKNKGSRLAFTSEDVEIKRLSPSERSRLHEHIKLLDKQDKERFQFQENLNVLESNLYDARNLLMDDEVMQNGPKSQVEELSEMVKVYLDWLEDASFDTDPEDIVSRIREIGILKKKIELYMDSAKEPLNSQQFKGMLEEGHKLLQAIETHKNTVEEFLSQFETEFADTIDNVREEFKKIKQPAYVSKALSTWEETLTSFKNSISEIEKFLAKNLFGEDLREHLFEIKLQFDMYRTKLEEKLRLIKSGDESRLNEIKKLHLRNFRLQKRKEEKLKRKLEQEKSRNNNETESTVINSADDKTTIVNDKTTESNPSSEEDILHDEL

The next lines start with the molecule.

Molecule: Ssc1 (from UniProt P0CS90 24-654)
- binding [1]: binds
- binding [2]: binds

Molecule: Poly-A-binding protein (Pab1) (from UniProt P04147 1-577)
- binding [1]: binds
- binding [2]: binds

Molecule: Kar2 (from UniProt P16474 43-682)
- binding [1]: binds
- binding [2]: binds

Molecule: Ssb1 (from UniProt P11484 1-613)
- binding [1]: binds
- binding [2]: binds

B4: Sse2 (protein, UniProt P32590 1-693)
chain: MSTPFGLDLGNNNSVLAVARNRGIDVVVNEVSNRSTPSLVGFGPRNRYLGESGKTKQTSNVKNTVENLKRIIGLKFKDPEFDIENKFFTSKLVQLKNGKVGVEVEFGGKTHVFSATQLTAMFIDKVKHTVQEETKSSITDVCLAVPVWYSEEQRYNIADAARIAGLNPVRIVNDVTAAAVSYGVFKNDLPGPEEKPRIIGLVDIGHSTYTCSIMAFRKGEMKVLGTAYDKHFGGRDFDRAITEHFADQFKDKYKIDIRKNPKAYNRILIAAEKLKKVLSANTTAPFSVESVMDDIDVSSQLSREELEELVEPLLKRVTYPITNALAQAKLTVNDIDFVEIIGGTTRIPVLKKSISDVFGKPLSSTLNQDEAVAKGAAFICAIHSPTLRVRPFKFEDIDPYSVSYTWDKQVDDEDRLEVFPANSSYPSTKLITLHRTGDFSMKAVYTHPSKLPKGTSTTIAKWSFTGVKVPKDQDFIPVKVKLRCDPSGLHIIENAYTTEDITVQEPVPLPEDAPEDAEPQFKEVTKTIKKDVLGMTAKTFALNPVELNDLIEKENELRNQDKLVAETEDRKNALEEYIYTLRAKLDDEYSDFASDAEKEKLKNMLATTENWLYGDGDDSTKAKYIAKYEELASLGNIIRGRYLAKEEEKRQALRANQETSKMNDIAEKLAEQRRARAASDDSDDNNDENMDLD
- binding [1]: binds

B5: Fes1 (protein, UniProt P38260 1-290)
chain: MEKLLQWSIANSQGDKEAMARAGQPDPKLLQQLFGGGGPDDPTLMKESMAVIMNPEVDLETKLVAFDNFEMLIENLDNANNIENLKLWEPLLDVLVQTKDEELRAAALSIIGTAVQNNLDSQNNFMKYDNGLRSLIEIASDKTKPLDVRTKAFYALSNLIRNHKDISEKFFKLNGLDCIAPVLSDNTAKPKLKMRAIALLTAYLSSVKIDENIISVLRKDGVIESTIECLSDESNLNIIDRVLSFLSHLISSGIKFNEQELHKLNEGYKHIEPLKDRLNEDDYLAVKYVL
- binding [1]: binds
